Laboratory results: patent US9284543B2, “Neutral active soluble truncated PH20 polypeptides and uses thereof” (Halozyme, Inc., priority 2008, dated 2016)

B1: SPAM1-VCID: C-terminally truncated human PH20, precursor 466 aa (SEQ ID NO:34), mature 431 aa (SEQ ID NO:86) (protein, listed as Homo sapiens)
chain 1: MGVLKFKHIFFRSFVKSSGVSQIVFTFLLIPCCLTLNFRAPPVIPNVPFLWAWNAPSEFCLGKFDEPLDMSLFSFIGSPRINATGQGVTIFYVDRLGYYPYIDSITGVTVNGGIPQKISLQDHLDKAKKDITFYMPVDNLGMAVIDWEEWRPTWARNWKPKDVYKNRSIELVQQQNVQLSLTEATEKAKQEFEKAGKDFLVETIKLGKLLRPNHLWGYYLFPDCYNHHYKKPGYNGSCFNVEIKRNDDLSWLWNESTALYPSIYLNTQQSPVAATLYVRNRVREAIRVSKIPDAKSPLPVFAYTRIVFTDQVLKFLSQDELVYTFGETVALGASGIVIWGTLSIMRSMKSCLLLDNYMETILNPYIINVTLAAKMCSQVLCQEQGVCIRKNWNSSDYLHLNPDNFAIQLEKGGKFTVRGKPTLEDLEQFSEKFYCSCYSTLSCKEKADVKDTDAVDVCIADGVCID
chain 2: LNFRAPPVIPNVPFLWAWNAPSEFCLGKFDEPLDMSLFSFIGSPRINATGQGVTIFYVDRLGYYPYIDSITGVTVNGGIPQKISLQDHLDKAKKDITFYMPVDNLGMAVIDWEEWRPTWARNWKPKDVYKNRSIELVQQQNVQLSLTEATEKAKQEFEKAGKDFLVETIKLGKLLRPNHLWGYYLFPDCYNHHYKKPGYNGSCFNVEIKRNDDLSWLWNESTALYPSIYLNTQQSPVAATLYVRNRVREAIRVSKIPDAKSPLPVFAYTRIVFTDQVLKFLSQDELVYTFGETVALGASGIVIWGTLSIMRSMKSCLLLDNYMETILNPYIINVTLAAKMCSQVLCQEQGVCIRKNWNSSDYLHLNPDNFAIQLEKGGKFTVRGKPTLEDLEQFSEKFYCSCYSTLSCKEKADVKDTDAVDVCIADGVCID
modifications: HuPH20 precursor 1-466; Mature HuPH20 36-466
B2: SPAM1-DAFL: C-terminally truncated human PH20, precursor 469 aa (SEQ ID NO:31), mature 434 aa (SEQ ID NO:83) (protein, listed as Homo sapiens)
chain 1: MGVLKFKHIFFRSFVKSSGVSQIVFTFLLIPCCLTLNFRAPPVIPNVPFLWAWNAPSEFCLGKFDEPLDMSLFSFIGSPRINATGQGVTIFYVDRLGYYPYIDSITGVTVNGGIPQKISLQDHLDKAKKDITFYMPVDNLGMAVIDWEEWRPTWARNWKPKDVYKNRSIELVQQQNVQLSLTEATEKAKQEFEKAGKDFLVETIKLGKLLRPNHLWGYYLFPDCYNHHYKKPGYNGSCFNVEIKRNDDLSWLWNESTALYPSIYLNTQQSPVAATLYVRNRVREAIRVSKIPDAKSPLPVFAYTRIVFTDQVLKFLSQDELVYTFGETVALGASGIVIWGTLSIMRSMKSCLLLDNYMETILNPYIINVTLAAKMCSQVLCQEQGVCIRKNWNSSDYLHLNPDNFAIQLEKGGKFTVRGKPTLEDLEQFSEKFYCSCYSTLSCKEKADVKDTDAVDVCIADGVCIDAFL
chain 2: LNFRAPPVIPNVPFLWAWNAPSEFCLGKFDEPLDMSLFSFIGSPRINATGQGVTIFYVDRLGYYPYIDSITGVTVNGGIPQKISLQDHLDKAKKDITFYMPVDNLGMAVIDWEEWRPTWARNWKPKDVYKNRSIELVQQQNVQLSLTEATEKAKQEFEKAGKDFLVETIKLGKLLRPNHLWGYYLFPDCYNHHYKKPGYNGSCFNVEIKRNDDLSWLWNESTALYPSIYLNTQQSPVAATLYVRNRVREAIRVSKIPDAKSPLPVFAYTRIVFTDQVLKFLSQDELVYTFGETVALGASGIVIWGTLSIMRSMKSCLLLDNYMETILNPYIINVTLAAKMCSQVLCQEQGVCIRKNWNSSDYLHLNPDNFAIQLEKGGKFTVRGKPTLEDLEQFSEKFYCSCYSTLSCKEKADVKDTDAVDVCIADGVCIDAFL
modifications: HuPH20 precursor 1-469; Mature HuPH20 36-469
B3: SPAM1-IDAF: C-terminally truncated human PH20, precursor 468 aa (SEQ ID NO:32), mature 433 aa (SEQ ID NO:84) (protein, listed as Homo sapiens)
chain 1: MGVLKFKHIFFRSFVKSSGVSQIVFTFLLIPCCLTLNFRAPPVIPNVPFLWAWNAPSEFCLGKFDEPLDMSLFSFIGSPRINATGQGVTIFYVDRLGYYPYIDSITGVTVNGGIPQKISLQDHLDKAKKDITFYMPVDNLGMAVIDWEEWRPTWARNWKPKDVYKNRSIELVQQQNVQLSLTEATEKAKQEFEKAGKDFLVETIKLGKLLRPNHLWGYYLFPDCYNHHYKKPGYNGSCFNVEIKRNDDLSWLWNESTALYPSIYLNTQQSPVAATLYVRNRVREAIRVSKIPDAKSPLPVFAYTRIVFTDQVLKFLSQDELVYTFGETVALGASGIVIWGTLSIMRSMKSCLLLDNYMETILNPYIINVTLAAKMCSQVLCQEQGVCIRKNWNSSDYLHLNPDNFAIQLEKGGKFTVRGKPTLEDLEQFSEKFYCSCYSTLSCKEKADVKDTDAVDVCIADGVCIDAF
chain 2: LNFRAPPVIPNVPFLWAWNAPSEFCLGKFDEPLDMSLFSFIGSPRINATGQGVTIFYVDRLGYYPYIDSITGVTVNGGIPQKISLQDHLDKAKKDITFYMPVDNLGMAVIDWEEWRPTWARNWKPKDVYKNRSIELVQQQNVQLSLTEATEKAKQEFEKAGKDFLVETIKLGKLLRPNHLWGYYLFPDCYNHHYKKPGYNGSCFNVEIKRNDDLSWLWNESTALYPSIYLNTQQSPVAATLYVRNRVREAIRVSKIPDAKSPLPVFAYTRIVFTDQVLKFLSQDELVYTFGETVALGASGIVIWGTLSIMRSMKSCLLLDNYMETILNPYIINVTLAAKMCSQVLCQEQGVCIRKNWNSSDYLHLNPDNFAIQLEKGGKFTVRGKPTLEDLEQFSEKFYCSCYSTLSCKEKADVKDTDAVDVCIADGVCIDAF
modifications: HuPH20 precursor 1-468; Mature HuPH20 36-468
B4: SPAM1-CIDA: C-terminally truncated human PH20, precursor 467 aa (SEQ ID NO:33), mature 432 aa (SEQ ID NO:85) (protein, listed as Homo sapiens)
chain 1: MGVLKFKHIFFRSFVKSSGVSQIVFTFLLIPCCLTLNFRAPPVIPNVPFLWAWNAPSEFCLGKFDEPLDMSLFSFIGSPRINATGQGVTIFYVDRLGYYPYIDSITGVTVNGGIPQKISLQDHLDKAKKDITFYMPVDNLGMAVIDWEEWRPTWARNWKPKDVYKNRSIELVQQQNVQLSLTEATEKAKQEFEKAGKDFLVETIKLGKLLRPNHLWGYYLFPDCYNHHYKKPGYNGSCFNVEIKRNDDLSWLWNESTALYPSIYLNTQQSPVAATLYVRNRVREAIRVSKIPDAKSPLPVFAYTRIVFTDQVLKFLSQDELVYTFGETVALGASGIVIWGTLSIMRSMKSCLLLDNYMETILNPYIINVTLAAKMCSQVLCQEQGVCIRKNWNSSDYLHLNPDNFAIQLEKGGKFTVRGKPTLEDLEQFSEKFYCSCYSTLSCKEKADVKDTDAVDVCIADGVCIDA
chain 2: LNFRAPPVIPNVPFLWAWNAPSEFCLGKFDEPLDMSLFSFIGSPRINATGQGVTIFYVDRLGYYPYIDSITGVTVNGGIPQKISLQDHLDKAKKDITFYMPVDNLGMAVIDWEEWRPTWARNWKPKDVYKNRSIELVQQQNVQLSLTEATEKAKQEFEKAGKDFLVETIKLGKLLRPNHLWGYYLFPDCYNHHYKKPGYNGSCFNVEIKRNDDLSWLWNESTALYPSIYLNTQQSPVAATLYVRNRVREAIRVSKIPDAKSPLPVFAYTRIVFTDQVLKFLSQDELVYTFGETVALGASGIVIWGTLSIMRSMKSCLLLDNYMETILNPYIINVTLAAKMCSQVLCQEQGVCIRKNWNSSDYLHLNPDNFAIQLEKGGKFTVRGKPTLEDLEQFSEKFYCSCYSTLSCKEKADVKDTDAVDVCIADGVCIDA
modifications: HuPH20 precursor 1-467; Mature HuPH20 36-467

Each molecule was assayed on CHO-S cells (assay: Western blot analysis of PH20 expression in media and cells after transient expression). Settings: band at approximately 66 kDa.
Format: cell-based, Chinese Hamster
Method: The mutant PH20-HZ24 plasmids generated in Example 1 were transiently […] into CHO—S cells (derived from Chinese Hamster Ovary CHO K1 cells) using GeneJuice® (Novagen) according to the manufacturer's instructions. In short, the CHO—S cells were grown in CD CHO medium supplemented with L-glutamine. Prior to transfection, the CHO—S cells were plated in 6-well plates, with approximately 5×10^5 cells per well, and grown overnight at 37° C. with 5% CO2. The medium was then removed and the CHO—S cells were washed 2 times with 1 mL serum-free medium. GeneJuice® was mixed with serum-free media followed by the addition of 2 μg mutant-HZ24 DNA. After incubating at room temperature for 5-15 minutes, the GeneJuice®/DNA mixture was added dropwise to an individual well containing the washed CHO—S cells. After 4 hours, the medium was replaced with 1 mL CD-CHO medium supplemented with L-glutamine and the cells were incubated for 72 hours at 37° C. with 5% CO2. Following expression, the media and cells were harvested separately.
The mutant PH20-HZ24 plasmids generated in Example 1 were transiently […] into CHO—S cells using GeneJuice® (Novagen) according to the manufacturer's instructions. […]
In this example, following transient expression, as described in Example 2 above, the media and cells were harvested separately and analyzed for PH20 expression and solublility by Western blot analysis. Solubility of the C-terminus truncation mutants was determined by examining whether the expressed protein was present in the growth media or in the cells. […] Cells expressing these mutants were treated with phosphoinositol-phospholipase C (PI-PLC), which cleaves the GPI-anchor allowing the release of soluble protein into the media, and the presence of PH20 in the resulting media and cells was determined by Western blot analysis.
Non-reduced samples were run on a 4-20% Tris-Glycine gel and transferred to PVDF membrane using iBlot (Invitrogen). For the Western blot, rabbit anti-PH20 IgG (0.5 μg/mL) was used as the primary antibody and HRP-conjugated goat anti-rabbit IgG (0.1 ng/mL, Cat#DC03L, EMD) was used as the secondary antibody. Evidence of expression is determined by a band at approximately 66 kDa, corresponding to recombinant human PH20 hyaluronidase.

Protein Expression, YES:
B1
B2
B3
B4
